Two sequences from patent US20090208458 can be followed below.

Amino acid sequences for entries named in this document (tags omitted). A change or cut given only in a name is not applied to a line headed by its entry. Residues count along the entry.
UniProt Q8N693, 2-406: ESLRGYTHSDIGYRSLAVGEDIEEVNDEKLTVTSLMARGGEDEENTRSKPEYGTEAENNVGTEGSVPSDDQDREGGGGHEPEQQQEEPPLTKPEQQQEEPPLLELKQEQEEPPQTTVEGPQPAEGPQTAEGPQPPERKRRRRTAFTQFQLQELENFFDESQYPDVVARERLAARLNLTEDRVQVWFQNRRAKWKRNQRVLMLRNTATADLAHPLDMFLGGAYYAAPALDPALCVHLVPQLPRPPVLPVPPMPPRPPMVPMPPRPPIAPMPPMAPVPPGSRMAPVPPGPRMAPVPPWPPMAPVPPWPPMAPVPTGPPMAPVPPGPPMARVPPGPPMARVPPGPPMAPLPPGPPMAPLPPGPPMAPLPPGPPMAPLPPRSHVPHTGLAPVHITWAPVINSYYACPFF

Data set [1] addresses Myc-ESXR1 (Homo sapiens) (UniProt Q8N693). Put plainly: EMSA. Conditions: 10 mM HEPES pH 7.5, 60 mM NaCl, 4 mM MgCl2, poly(dI-dC), on ice; result shown in figure; protein in a lysate after overexpression; protein details: N-terminal Myc (included in SEQ 3), COS-7 extract; label: 32P. A general note: A gel shift assay detects complexes by their altered migration in electrophoresis.

In data set [2] the target is Myc-ESXR1-ΔC (Homo sapiens) (UniProt Q8N693). Briefly: EMSA. Conditions: 10 mM HEPES pH 7.5, 60 mM NaCl, 4 mM MgCl2, poly(dI-dC), on ice; result shown in figure only; protein in a lysate after overexpression; protein details: N-terminal Myc, COS-7 extract; label: 32P.
In data set [3] the target is Myc-ESXR1 (Homo sapiens) (UniProt Q8N693). Put plainly: activity in cells. The settings on record: protein in cells, protein details: N-terminal Myc (included in SEQ 3).

For some of these results: At least one result comes from cells or an extract, where the contact may be indirect. For some of these results: For at least one entry, the source does not settle the construct or the ends of the probe.

For the sequence “CGCGTAATTTGATTACGTAATTTGATTAGCTAATTTGATTACGCG (double strand) [Oligonucleotide 6 P3 probe (three P3 sites)]”, the binding result (with Myc-ESXR1 (Homo sapiens) [1]; in data set [2]) was “binds” each time. In the data set with Myc-ESXR1 (Homo sapiens) [3] (luciferase reporter repression in U2-OS cells, pGL3-Promoter), the “activity on this sequence” value was “active”.

For the sequence “CGCGTAAAAGGGTAAAGGACATCTTAATGTTATTATGAAAACAGTTTTGACCTCTCGCG (double strand) [Oligonucleotide 10 K-ras first intron P3 site]”, the “activity on this sequence” value with Myc-ESXR1 (Homo sapiens) [3] (ESXR1-dependent luciferase repression, upstream of SV40 promoter, cell line not restated, U2-OS cells) is “active”.
